# Among all 360,000 compounds or so, about 10,000 (2.8%) were called active. Inconclusive means that the source gave no clear call. Such entries were picked first, then a sample of the others. The call rests on the fitted dose curve; in most records, active means well fitted inhibition curve with a large enough effect; inconclusive means small, poorly fitted or top-dose-only effect; inactive means flat fitted curve, though single readings scatter. A potency beside an inconclusive call is a rough fit, not a confirmed value.
# Protein sequences, listed by entry. Tags and fused reporters are not part of them.
# UniProt P53350, whole entry, looked up: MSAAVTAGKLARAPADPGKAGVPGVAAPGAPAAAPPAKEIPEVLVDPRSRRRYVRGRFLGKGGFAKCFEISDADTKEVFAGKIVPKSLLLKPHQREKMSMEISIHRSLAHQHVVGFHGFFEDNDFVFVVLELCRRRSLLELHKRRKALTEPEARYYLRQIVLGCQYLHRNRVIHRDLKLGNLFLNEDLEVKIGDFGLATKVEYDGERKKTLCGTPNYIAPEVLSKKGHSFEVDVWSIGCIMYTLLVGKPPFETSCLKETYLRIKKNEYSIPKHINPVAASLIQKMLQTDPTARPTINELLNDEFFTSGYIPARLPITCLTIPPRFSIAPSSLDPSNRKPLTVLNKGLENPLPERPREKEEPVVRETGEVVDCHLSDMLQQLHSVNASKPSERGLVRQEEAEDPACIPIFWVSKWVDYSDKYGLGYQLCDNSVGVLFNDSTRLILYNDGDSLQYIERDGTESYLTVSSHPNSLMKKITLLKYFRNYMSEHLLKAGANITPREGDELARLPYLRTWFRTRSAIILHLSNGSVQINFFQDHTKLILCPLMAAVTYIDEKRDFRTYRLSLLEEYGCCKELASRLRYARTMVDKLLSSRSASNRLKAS
# Molecular target: Serine/threonine-protein kinase PLK1 (Homo sapiens) (UniProt P53350)
# Experiment: qHTS for Inhibitors of PLK1-PDB (polo-like kinase 1 - polo-box domain): Primary Screen; further: nearly all actives have a fitted effect of over 65% in size; on max response, negative = inhibition: series mostly up to about 57 µM
# Conditions: Plk1 PBD binding of FITC phosphopeptide, fluorescence polarization
# Source text: The polo-like kinase 1 (Plk1) is a member of a conserved subfamily of serine / threonine protein kinases that plays a pivotal roles in cell proliferation. It has a C-terminal non-catalytic region called the polo-box domain (PBD) that plays a crucial role in the subcellular localization of the Plk1. […] Furthermore, depletion of the overexpressed Plk1 by RNAi efficiently induces apoptotic cell death in cancer and reduces tumor growth in mouse xenograft models. Thus, targeting Plk1 is an appealing strategy for anti-cancer therapy. Therefore, this project aimed to screen the Molecular Libraries Small Molecule Repository (MLSMR) using a novel approach to find inhibitors that target the Plk1 PBD instead of the conventional N-terminal catalytic domain. This project employed a fluorescence polarization (FP) assay using a FITC-conjugated phospho-9-mer (p-9-mer) peptide and purified human Plk1 PBD protein. The identified small molecule inhibitors of Plk1 PBD can then further be developed into useful tools for biomedical and clinical research that complements or replaces current relevant disease therapy. NIH Chemical Genomics Center [NCGC] NIH Molecular Libraries Probe Centers Network [MLPCN] MLPCN Grant: MH100728 Assay Submitter (PI): Kyung Lee, NCI
# Four microliter of 25 nM FITC-p-9-mer + 60 nM Plk1 PBD in buffer solution (final concentrations 25 nM and 60 nM respectively) or 4 uL of 25 nM FITC-p-9-mer (final concentration 25 nM) in buffer will be dispensed into a 1,536 Greiner medium-binding black solid plate. Small molecules at final concentrations of 18 nM to 57 uM and positive control phospho-9-mer (sequence: Ac-PPLHSpTAI-NH2) at final concentrations 26 nM to 57 uM and phospho-13-mer (sequence: Ac-[…]pTAI-NH2) at final concentrations of 1 nM to 2.3 uM will be pin-transferred (23 nL) to the plate via a Kalypsys pin-tool robotics equipped with a 1,536-pin array. The reaction plate will be centrifuged for 1 min at 1000 rpm and incubated at room temperature for 10 min. The FITC fluorescence signals will be read using the PerkinElmer ViewLux plate reader at 480 / 20 nm excitation and 540 / 20 nm S and P polarization emission wavelengths. Reagent bottles will be kept submerged into 4 °C recirculating chiller bath and all liquid lines will be covered with aluminum foil to minimize degradation. Library plates will be screened starting from the lowest to the highest concentrations to minimize compound carryover. Vehicle only plates, with DMSO being pin-transferred instead of compound solutions, will be included regularly throughout the screen to record any systematic shifts in assay signal.
# On the % scale 0 is the no-effect control and ±100 the full control effect; potency means the concentration at half of the fitted maximal effect.
Compound,Potency,"max response, negative = inhibition"
O=[N+]([O-])c1ccc(N2CCCCCC2)c2ncccc12,"inconclusive: 29.9 µM [inhibitor, single point]",–
Nc1nnc(Sc2ncccc2[N+](=O)[O-])s1,active: 9.47 µM,–
Cc1cc(N(CCCl)CCCl)ccc1/C=N/NC(=O)c1ccco1,–,inactive: 2.39%
Cn1cccc1/C=C1\C(=O)NC(=O)N(Cc2ccccc2)C1=O,"inconclusive: 0.947 µM [inhibitor, full curve]",–
O=C1C=CC2C3C(=O)N(c4ccccc4)C(=O)C3C1N2Cc1ccccc1 (stereo not given),"inconclusive: 26.7 µM [inhibitor, partial curve]",–
CN1C(=O)NC(=O)/C(=C\c2ccc([N+](=O)[O-])o2)C1=O,active: 2.67 µM,–
CC(N=Cc1c(O)n(C2CC2)c(=S)[nH]c1=O)c1ccccc1 (stereo not given),–,inactive: 3%
CC1=C(C(=O)O)N2C(=O)C(NC(=O)Cc3ccccc3)C2SC1 (stereo not given),–,inactive: -6.86%
O=C(c1ccc(F)c([N+](=O)[O-])c1)N1CC2CC(C1)c1cccc(=O)n1C2 (stereo not given),"inconclusive: 18.9 µM [inhibitor, single point]",–
Cc1[nH]n(-c2ccccc2)c(=O)c1C(C[N+](=O)[O-])c1ccccc1Cl (stereo not given),active: 15 µM,–
O=C1CC(=O)N(c2cccc(C(F)(F)F)c2)C(=O)N1,"inconclusive: 21.2 µM [inhibitor, partial curve]",–
CCN1CCC(O)(c2ccccc2)C(C(=O)c2ccccc2)C1 (stereo not given),"inconclusive: 26.7 µM [inhibitor, partial curve]",–
O=C(N/N=C/c1c(O)n(CCc2ccc(F)cc2)c(=O)[nH]c1=O)c1ccncc1,–,inactive: -9.15%
CCOP(=O)(OCC)/C(=N/OC(=O)c1ccccc1C)C(N)=O,"inconclusive: 29.9 µM [inhibitor, partial curve]",–
O=C1NC(=O)N(c2ccccc2)C(=O)/C1=C/c1coc2ccc(O)cc2c1=O,active: 11.9 µM,–
CCCc1[nH][nH]c(=O)c1C(c1ccc(Cl)cc1)C(C#N)C#N (stereo not given),active: 21.2 µM,–
CCOc1cc(C=C2C(=O)NC(=O)NC2=O)ccc1OCC(=O)N1CCOCC1,"inconclusive: 26.7 µM [inhibitor, partial curve]",–
CCN(CC)CCN=Cc1c(O)n(CCc2ccccc2)c(=O)[nH]c1=O,"inconclusive: 26.7 µM [inhibitor, partial curve]",–

# For reference, two of the compounds above:
Compound,Potency,"max response, negative = inhibition"
Cc1cc(N(CCCl)CCCl)ccc1/C=N/NC(=O)c1ccco1,–,inactive: 2.39%
Cn1cccc1/C=C1\C(=O)NC(=O)N(Cc2ccccc2)C1=O,"inconclusive: 0.947 µM [inhibitor, full curve]",–

# More results.

Compound,Potency,"max response, negative = inhibition"
COCCCOc1ccnc(CS(=O)c2nc3ccccc3[nH]2)c1C (stereo not given),"inconclusive: 21.2 µM [inhibitor, partial curve]",–
C[C@H]1CC[C@@]2(C)[C@@H](CC[C@@H]3[C@@H]2CC[C@]2(C)[C@@H](O)CC[C@@H]32)C1,active: 26.7 µM,–
Cc1[nH]c(=S)c(C#N)c2c1CCCC2,active: 26.7 µM,–
O=C(Oc1ccc(Br)cc1C(=S)N1CCCC1)c1ccccc1Cl,"inconclusive: 26.7 µM [inhibitor, partial curve]",–
Cc1ccnc(-n2c(C)cc(C=C3C(=O)N(C)C(=S)N(C)C3=O)c2C)c1,active: 1.19 µM,–
CCOC(=O)[C@]12Cc3ccccc3[C@H]1N(CCC(=O)OC)C(=O)c1cc(OC)ccc12,"inconclusive: 7.52 µM [inhibitor, single point]",–
N=C1/C(=C\c2ccc(OC(=O)c3ccccc3Cl)cc2)C(=O)N=C2SC(N3CCOCC3)=NN12,active: 29.9 µM,–
Cc1cccc(N2C(=O)NC(=O)/C(=C\C=C\c3ccco3)C2=O)c1,"inconclusive: 1.89 µM [inhibitor, full curve, poor fit]",–
CCOc1cc(CNCCc2c[nH]c3ccccc23)cc(Cl)c1OC,–,inactive: -6.56%
CCN(C[C@H]1N[C@@](C)(C(=O)OC)[C@H]2C(=O)N(Cc3ccccc3)C(=O)[C@@H]12)S(=O)(=O)c1ccc(C(C)(C)C)cc1,"inconclusive: 29.9 µM [inhibitor, partial curve]",–
O=C(O)c1ccc[nH]c1=S,"inconclusive: 33.6 µM [inhibitor, single point]",–
CCN(CC)c1nc2c(C)cccn2c(=O)c1C=C1C(=O)NC(=O)NC1=O,–,inactive: -15.7%
O=C(CCN1CCOCC1)Nc1ccc(Br)cc1C(=O)c1ccccc1,"inconclusive: 26.7 µM [inhibitor, partial curve]",–
CS(=O)(=O)N1CCN(C(=N)N[N+](=O)[O-])CC1,"inconclusive: 37.7 µM [inhibitor, single point]",–
COc1ccc(C(=O)CC2C(=O)N(C)C(=O)N(C)C2=O)cc1,"inconclusive: 21.2 µM [inhibitor, single point]",–
NC(=O)Cn1cc(C=C2C(=O)NC(=O)NC2=O)c2ccccc21,"inconclusive: 7.52 µM [inhibitor, partial curve]",–
CCc1ccc(N2C(=O)CC(=O)NC2=O)cc1,–,inactive: -16.2%

# — PubChem BioAssay AID720504 (National Center for Advancing Translational Sciences (NCATS), 2013)
